The target in test [1] is monkey TSLP-His (cynomolgus monkey, Macaca fascicularis) (cynomolgus monkey (Macaca fascicularis)). Put plainly: ELISA, hybridoma supernatant. (In general: An ELISA detects its analyte on a solid surface through an enzyme-linked reagent.)
Test [2] has the same target. Put plainly: ELISA, monkey TSLP-His coated.
For test [3] the target is unchanged. Nature of the test: BLI (Fortebio).

No constants are given. Whether binding was seen depends on the method and setting. Some results given as binding are weak or reduced against the parent protein; the word gives no strength.

B1: chimeric antibody 43B1A8 (antibody, V domains shown)
VH: QMQLVESGGGAVQPGRSLRLSCAASGFTFRSYDMHWVRQAPGKGLEWVAVIWYDGSNENYADSVKGRFTTSRDNSKNTLFLQMNSLRAEDTAVYYCARSPLWYGEPDDAFDIWGQGTLVTVSS
VL: EIVMTQSPATLSVSPGERATLSCRASQSVSSNLAWYQQKPGQAPRLLISGASTRATGIPARFSGSGSGTDFTLTISSLRSEDFAVYYCQHYNNWPLTFGGGTKVEIK
Consider B1, for which the binding entry in test [1] and in test [2] was “binds” each time.

B2: chimeric antibody 37C2D10 (antibody, V domains shown)
VH: QVQLQESGPGLVKPSGTLSLTCAVSGDSISSDNWWNWVRQPPGKGLQWIGEIFHSGRTNYNPSLKSRVTISVDMSKNQFSLKLSSVTAADTAVYFCARDAPNDYGDYGFFDYWGQGILVTVSS
VL: DIVMTQSPLSLPVTPGEPASISCRSSQSLLHSNEYNYLDWYLQKPGQSPQLLIYLGSDRASGVPDRFSGSGSGTDFTLKISRVEAEDVGIYYCMQALQTPYTFGQGTKLEIK
Take B2: the binding result in test [1] and in test [2] was “binds” in each case.

B3: recombinant fully human antibody 37C2D10-hIgG (antibody, V domains shown)
VH: QVQLQESGPGLVKPSGTLSLTCAVSGDSISSDNWWNWVRQPPGKGLQWIGEIFHSGRTNYNPSLKSRVTISVDMSKNQFSLKLSSVTAADTAVYFCARDAPNDYGDYGFFDYWGQGILVTVSS
VL: DIVMTQSPLSLPVTPGEPASISCRSSQSLLHSNEYNYLDWYLQKPGQSPQLLIYLGSDRASGVPDRFSGSGSGTDFTLKISRVEAEDVGIYYCMQALQTPYTFGQGTKLEIKR
As for B3, the binding entry in test [3] and in test [2] was “binds” throughout.

(Values after patent US20220363781A1.)
